Patent publication US7727995B2, “Antiherpes drug combinations” (University of Massachusetts, priority 2003, dated 2010)
At least one compound was matched to its structure with a doubt left. Marks after values point to notes of the source that are not given here.

Key:
McKrae strain of HSV-1 = test: Inhibition of HSV encephalitis in mice, HSV-1 infection; format: in vivo; details: HSV1, 5 days
Method: (§1) BALB/c female mice at 6 weeks of age were anesthetized, their corneas lightly scratched with a 27-gauge needle, and 3 μl of infectious virus (McKrae strain of HSV-1 or G strain of HSV-2; 5×10^5 PFU) was placed on each cornea. At the time of infection, groups of ten animals were given 0.1 ml injections i.p. of vehicle (corn oil) or test drug or drug combination (e.g., HBPG or foscarnet or both) in vehicle at indicated concentrations, and the animals were returned to their cages and allowed to recover from anesthesia. Treatment was repeated by a regimen optimal for the drug combination and dose. Animals were observed daily for 30 days, and the day of death of each animal was recorded.

G strain of HSV-2 = test: Inhibition of HSV encephalitis in mice, HSV-2 infection; format: in vivo; details: HSV2, 5 days
Method: as §1

O=C(O)P(=O)(O)O [foscarnet, phosphonoformate]
Survivors/treated (McKrae strain of HSV-1; 200 mg/kg ip twice daily): 5/10* | Survivors/treated (McKrae strain of HSV-1; 400 mg/kg ip twice daily): 7/10* | Survivors/treated (G strain of HSV-2; 200 mg/kg ip twice daily): 4/10* | Survivors/treated (G strain of HSV-2; 400 mg/kg ip twice daily): 6/10*
